Results deposited as PubChem BioAssay AID1224828 (NIAID, 2016)
This is a random part of about 17,000 reagents tested. 762 of them (4.5%) were called active. 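Active calls include both raised and lowered p65 entry, mostly lowered; wells with fewer than 50 cells lack a z-score.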 Raw values are not corrected between plates. A number with no mark means an inactive call. No sequences are given here.

Aim: 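Find genes required for NF-kappaB p65 moving into the nucleus after LPS in mouse macrophages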 (primary screen)
System: mouse RAW264.7 G9 macrophage reporter cells (GFP-p65, Tnf promoter-mCherry)
Reagent: siRNA pool against mouse genes, 100 nM
Duration: 2 days siRNA transfection, then 40 min LPS before fixation
Challenge: LPS (Salmonella minnesota R595) at 10 ng/ml
Measurement: 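Imaged p65 nuclear translocation ratio, normalised to the plate median, converted to robust z-scores and averaged across two replicates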
Reading the numbers: p65 translocation robust z-score: higher = more nuclear NF-kappaB p65 after LPS than the plate median; nuclear/cytoplasmic p65 ratio: higher = more nuclear NF-kappaB p65
Hit rule: 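Called active when z exceeds 3.3 or falls under -1.56 (median of Tlr4 controls), giving activity score of at least 50; no calls for control wells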
Calls: active = hit (p65 shift raised or lowered); inactive = no clear change

After knock-down of Fis1 (fission, mitochondrial 1) the results were nuclear/cytoplasmic p65 ratio, rep 1 = 1.56; nuclear/cytoplasmic p65 ratio, rep 2 = 1.43; low cell count flag fewer than 50 cells per well; well left out of scoring.
With knock-down of Krt5 (keratin 5), the record shows p65 translocation robust z-score -0.49; nuclear/cytoplasmic p65 ratio, rep 1 = 1.46; nuclear/cytoplasmic p65 ratio, rep 2 = 1.27; low cell count flag enough cells to score.
Silencing of Bola2 (bolA family member 2) resulted in: p65 translocation robust z-score -0.9; nuclear/cytoplasmic p65 ratio, rep 1 = 1.44; nuclear/cytoplasmic p65 ratio, rep 2 = 1.3; low cell count flag enough cells to score.
After knock-down of Dnai1 (dynein axonemal intermediate chain 1) the results were p65 translocation robust z-score -0.6; nuclear/cytoplasmic p65 ratio, rep 1 = 1.3; nuclear/cytoplasmic p65 ratio, rep 2 = 1.28; low cell count flag enough cells to score.
Ppfia1 gave p65 translocation robust z-score 0.31; nuclear/cytoplasmic p65 ratio, rep 1 = 1.55; nuclear/cytoplasmic p65 ratio, rep 2 = 1.44; low cell count flag enough cells to score.
With knock-down of Thumpd3 (THUMP domain containing 3), the screen gave p65 translocation robust z-score -0.69; nuclear/cytoplasmic p65 ratio, rep 1 = 1.49; nuclear/cytoplasmic p65 ratio, rep 2 = 1.49; low cell count flag enough cells to score.
Knock-down of Sh3bgr (SH3-binding domain glutamic acid-rich protein) gave: p65 translocation robust z-score 0.75; nuclear/cytoplasmic p65 ratio, rep 1 = 1.37; nuclear/cytoplasmic p65 ratio, rep 2 = 1.34; low cell count flag enough cells to score.
Depletion of Krt27 (keratin 27) came out at: p65 translocation robust z-score -0.97; nuclear/cytoplasmic p65 ratio, rep 1 = 1.25; nuclear/cytoplasmic p65 ratio, rep 2 = 1.44; low cell count flag enough cells to score.
Klk6 (kallikrein related-peptidase 6) gave p65 translocation robust z-score -0.63; nuclear/cytoplasmic p65 ratio, rep 1 = 1.3; nuclear/cytoplasmic p65 ratio, rep 2 = 1.21; low cell count flag enough cells to score.
After knock-down of Rassf5 (Ras association (RalGDS/AF-6) domain family member 5), the record shows p65 translocation robust z-score 0.87; nuclear/cytoplasmic p65 ratio, rep 1 = 1.68; nuclear/cytoplasmic p65 ratio, rep 2 = 1.6; low cell count flag enough cells to score.
Tnfsf12 (tumor necrosis factor (ligand) superfamily, member 12) scored p65 translocation robust z-score 0.61; nuclear/cytoplasmic p65 ratio, rep 1 = 1.54; nuclear/cytoplasmic p65 ratio, rep 2 = 1.67; low cell count flag enough cells to score.
With knock-down of L3mbtl2 (L3MBTL2 polycomb repressive complex 1 subunit), the screen gave p65 translocation robust z-score 0.86; nuclear/cytoplasmic p65 ratio, rep 1 = 1.61; nuclear/cytoplasmic p65 ratio, rep 2 = 1.6; low cell count flag enough cells to score.
After knock-down of Ppp1r14b (protein phosphatase 1, regulatory inhibitor subunit 14B), the screen gave p65 translocation robust z-score 1.45; nuclear/cytoplasmic p65 ratio, rep 1 = 1.66; nuclear/cytoplasmic p65 ratio, rep 2 = 1.63; low cell count flag enough cells to score.

Look-ups from above.
Ppfia1, low cell count flag = enough cells to score
Krt27 (keratin 27), p65 translocation robust z-score: -0.97

Additional records follow:
Depletion of Erf (Ets2 repressor factor) came out at: p65 translocation robust z-score -0.64; nuclear/cytoplasmic p65 ratio, rep 1 = 1.32; nuclear/cytoplasmic p65 ratio, rep 2 = 1.34; low cell count flag enough cells to score.
Against Or51a39 (olfactory receptor family 51 subfamily A member 39), the entry reads p65 translocation robust z-score -1.57 (active); nuclear/cytoplasmic p65 ratio, rep 1 = 1.29; nuclear/cytoplasmic p65 ratio, rep 2 = 1.29; low cell count flag enough cells to score.
For Crb1 the deposit lists p65 translocation robust z-score 0.26; nuclear/cytoplasmic p65 ratio, rep 1 = 1.66; nuclear/cytoplasmic p65 ratio, rep 2 = 1.28; low cell count flag enough cells to score.
After knock-down of D130012P04Rik (RIKEN cDNA D130012P04 gene), the record shows p65 translocation robust z-score 0.41; nuclear/cytoplasmic p65 ratio, rep 1 = 1.73; nuclear/cytoplasmic p65 ratio, rep 2 = 1.75; low cell count flag enough cells to score.
After knock-down of Rrp9, the screen gave p65 translocation robust z-score -0.2; nuclear/cytoplasmic p65 ratio, rep 1 = 1.28; nuclear/cytoplasmic p65 ratio, rep 2 = 1.2; low cell count flag enough cells to score.
Silencing of 4933411G06Rik (RIKEN cDNA 4933411G06 gene) resulted in: nuclear/cytoplasmic p65 ratio, rep 1 = 1.3; nuclear/cytoplasmic p65 ratio, rep 2 = 1.31; low cell count flag fewer than 50 cells per well; well left out of scoring.
Depletion of Pgam2 (phosphoglycerate mutase 2) gave: p65 translocation robust z-score -2.01 (active); nuclear/cytoplasmic p65 ratio, rep 1 = 1.15; nuclear/cytoplasmic p65 ratio, rep 2 = 1.14; low cell count flag enough cells to score.
With knock-down of Scgb1b27 (secretoglobin, family 1B, member 27), the record shows p65 translocation robust z-score -0.75; nuclear/cytoplasmic p65 ratio, rep 1 = 1.52; nuclear/cytoplasmic p65 ratio, rep 2 = 1.54; low cell count flag enough cells to score.
Depletion of Hoxb3 (homeobox B3) resulted in: p65 translocation robust z-score 0.07; nuclear/cytoplasmic p65 ratio, rep 1 = 1.43; nuclear/cytoplasmic p65 ratio, rep 2 = 1.4; low cell count flag enough cells to score.
P4ha2 showed p65 translocation robust z-score -1.2; nuclear/cytoplasmic p65 ratio, rep 1 = 1.28; nuclear/cytoplasmic p65 ratio, rep 2 = 1.12; low cell count flag enough cells to score.
Dpy19l1 (dpy-19 like C-mannosyltransferase 1) scored p65 translocation robust z-score 0.35; nuclear/cytoplasmic p65 ratio, rep 1 = 1.49; nuclear/cytoplasmic p65 ratio, rep 2 = 1.59; low cell count flag enough cells to score.
Knock-down of Clcn3 (chloride channel, voltage-sensitive 3) came out at: p65 translocation robust z-score 0.22; nuclear/cytoplasmic p65 ratio, rep 1 = 1.67; nuclear/cytoplasmic p65 ratio, rep 2 = 1.77; low cell count flag enough cells to score.
Against Hap1 (huntingtin-associated protein 1), the values are p65 translocation robust z-score -0.4; nuclear/cytoplasmic p65 ratio, rep 1 = 1.4; nuclear/cytoplasmic p65 ratio, rep 2 = 1.3; low cell count flag enough cells to score.
With knock-down of Pmm2 (phosphomannomutase 2), the screen gave p65 translocation robust z-score -0.44; nuclear/cytoplasmic p65 ratio, rep 1 = 1.45; nuclear/cytoplasmic p65 ratio, rep 2 = 1.34; low cell count flag enough cells to score.
